From PMC11461180, “Interaction with IP6K1 supports pyrophosphorylation of substrate proteins by the inositol pyrophosphate 5-InsP7” (Bioscience Reports, 2024) come the findings set out here.

Protein sequences, listed by entry. Tags and fused reporters are not part of them. Lines headed by an entry give the natural chain unless they say otherwise; changes in a name come on top.
UniProt Q92551: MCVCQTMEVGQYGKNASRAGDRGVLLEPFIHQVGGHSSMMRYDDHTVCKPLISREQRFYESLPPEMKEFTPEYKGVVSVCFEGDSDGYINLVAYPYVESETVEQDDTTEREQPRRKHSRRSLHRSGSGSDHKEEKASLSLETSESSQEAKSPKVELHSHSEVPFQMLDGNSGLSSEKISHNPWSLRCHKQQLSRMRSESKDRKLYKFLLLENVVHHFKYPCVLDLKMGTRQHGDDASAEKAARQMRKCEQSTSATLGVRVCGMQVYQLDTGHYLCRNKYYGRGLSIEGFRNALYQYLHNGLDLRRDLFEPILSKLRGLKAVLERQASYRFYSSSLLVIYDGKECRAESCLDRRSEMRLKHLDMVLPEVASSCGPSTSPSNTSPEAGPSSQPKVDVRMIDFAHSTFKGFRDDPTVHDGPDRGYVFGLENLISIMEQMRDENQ

No constants are given. Whether binding was seen depends on the method and setting. In cells and extracts the contact can be indirect. Some results given as binding are weak or reduced against the parent protein; the word gives no strength. Sequences can lack the tags named with a protein.

In assay [1] the target is SFB-tagged IP6K1 (full length) (human) (UniProt Q92551). Nature of the assay: pull-down; SFB-tagged bait expressed in HEK293T (HEK293) cells, pulled down from the lysate with streptavidin-sepharose beads, 2 h at 4°C (50 mM HEPES pH 7.4, 100 mM NaCl, 1 mM EDTA, 0.5% Nonidet P-40); prey endogenous or co-expressed, detected by immunoblotting. Background: A western blot detects proteins with antibodies after separation by electrophoresis.

Assay [2] has as its target T1, HA-tagged CK2α (K68M), catalytically inactive (human) (UniProt P68400).
T1 sequence: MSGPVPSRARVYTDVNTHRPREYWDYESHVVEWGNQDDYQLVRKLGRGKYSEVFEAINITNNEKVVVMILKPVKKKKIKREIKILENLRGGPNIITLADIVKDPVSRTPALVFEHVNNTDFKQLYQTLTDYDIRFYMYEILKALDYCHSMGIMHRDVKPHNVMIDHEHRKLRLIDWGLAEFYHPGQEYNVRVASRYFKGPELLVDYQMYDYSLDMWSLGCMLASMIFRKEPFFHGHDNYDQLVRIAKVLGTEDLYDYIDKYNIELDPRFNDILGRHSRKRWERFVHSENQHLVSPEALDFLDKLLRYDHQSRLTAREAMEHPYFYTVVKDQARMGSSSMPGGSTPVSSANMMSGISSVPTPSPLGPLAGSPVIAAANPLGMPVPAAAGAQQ
Nature of the assay: co-IP; N-terminally HA-tagged CK2α co-expressed with myc-AP3B1 and/or IP6K1-V5 in HEK293T; lysate immunoprecipitated with an anti-HA antibody; immunoblotting for V5 or myc.

The target of assay [3] is HA-tagged CK2α (human) (UniProt P68400). The description is as above.
Assay [4] has as its target V5-tagged IP6K1 (human) (UniProt Q92551). Nature of the assay: co-IP; competition in cells: IP6K1-V5 and myc-AP3B1 co-expressed in HEK293T in the absence or presence of SFB-tagged IDR-1; anti-V5 immunoprecipitation, immunoblot for myc, densitometry (N=3).
The target is the same in assay [5]. Nature of the assay: co-IP; C-terminally V5-tagged IP6K1 co-expressed with tagged partners in HEK293T; lysate immunoprecipitated with an anti-V5 antibody overnight at 4°C, Protein A or G-sepharose; immunoblotting for myc or HA.
Assay [6] deals with catalytically inactive IP6K1 (K226A), V5-tagged (human) (UniProt Q92551). The assay is described as above.
For assay [7], the target named is GST-tagged recombinant CK2α (human) (UniProt P68400). In words: pull-down; GST-tagged IP6K1 or CK2α purified from E. coli and immobilized on glutathione-sepharose beads, incubated with lysates of transfected HEK293T cells in 50 mM HEPES-KOH pH 7.4, 100 mM NaCl, 5 mM MgCl2, 0.3% Triton X-100, 2 h at 4°C; immunoblotting; only the target purified.
For assay [8], the target named is GST-tagged recombinant IP6K1 (human) (UniProt Q92551). The description is as above.

B1: endogenous TCOF (protein, UniProt Q13428 1-1488)
chain: MAEARKRRELLPLIYHHLLRAGYVRAAREVKEQSGQKCFLAQPVTLLDIYTHWQQTSELGRKRKAEEDAALQAKKTRVSDPISTSESSEEEEEAEAETAKATPRLASTNSSVLGADLPSSMKEKAKAETEKAGKTGNSMPHPATGKTVANLLSGKSPRKSAEPSANTTLVSETEEEGSVPAFGAAAKPGMVSAGQADSSSEDTSSSSDETDVEGKPSVKPAQVKASSVSTKESPARKAAPAPGKVGDVTPQVKGGALPPAKRAKKPEEESESSEEGSESEEEAPAGTRSQVKASEKILQVRAASAPAKGTPGKGATPAPPGKAGAVASQTKAGKPEEDSESSSEESSDSEEETPAAKALLQAKASGKTSQVGAASAPAKESPRKGAAPAPPGKTGPAVAKAQAGKREEDSQSSSEESDSEEEAPAQAKPSGKAPQVRAASAPAKESPRKGAAPAPPRKTGPAAAQVQVGKQEEDSRSSSEESDSDREALAAMNAAQVKPLGKSPQVKPASTMGMGPLGKGAGPVPPGKVGPATPSAQVGKWEEDSESSSEESSDSSDGEVPTAVAPAQEKSLGNILQAKPTSSPAKGPPQKAGPVAVQVKAEKPMDNSESSEESSDSADSEEAPAAMTAAQAKPALKIPQTKACPKKTNTTASAKVAPVRVGTQAPRKAGTATSPAGSSPAVAGGTQRPAEDSSSSEESDSEEEKTGLAVTVGQAKSVGKGLQVKAASVPVKGSLGQGTAPVLPGKTGPTVTQVKAEKQEDSESSEEESDSEEAAASPAQVKTSVKKTQAKANPAAARAPSAKGTISAPGKVVTAAAQAKQRSPSKVKPPVRNPQNSTVLARGPASVPSVGKAVATAAQAQTGPEEDSGSSEEESDSEEEAETLAQVKPSGKTHQIRAALAPAKESPRKGAAPTPPGKTGPSAAQAGKQDDSGSSSEESDSDGEAPAAVTSAQVIKPPLIFVDPNRSPAGPAATPAQAQAASTPRKARASESTARSSSSESEDEDVIPATQCLTPGIRTNVVTMPTAHPRIAPKASMAGASSSKESSRISDGKKQEGPATQVSKKNPASLPLTQAALKVLAQKASEAQPPVARTQPSSGVDSAVGTLPATSPQSTSVQAKGTNKLRKPKLPEVQQATKAPESSDDSEDSSDSSSGSEEDGEGPQGAKSAHTLGPTPSRTETLVEETAAESSEDDVVAPSQSLLSGYMTPGLTPANSQASKATPKLDSSPSVSSTLAAKDDPDGKQEAKPQQAAGMLSPKTGGKEAASGTTPQKSRKPKKGAGNPQASTLALQSNITQCLLGQPWPLNEAQVQASVVKVLTELLEQERKKVVDTTKESSRKGWESRKRKLSGDQPAARTPRSKKKKKLGAGEGGEASVSPEKTSTTSKGKAKRDKASGDVKEKKGKGSLGSQGAKDEPEEELQKGMGTVEGGDQSNPKSKKEKKKSDKRKKDKEKKEKKKKAKKASTKDSESPSQKKKKKKKKTAEQTV
Take B1: the binding entry in assay [1] is recorded as “binds”.

B2: endogenous NOLC1 (protein, UniProt Q14978 1-699)
chain: MADAGIRRVVPSDLYPLVLGFLRDNQLSEVANKFAKATGATQQDANASSLLDIYSFWLKSAKVPERKLQANGPVAKKAKKKASSSDSEDSSEEEEEVQGPPAKKAAVPAKRVGLPPGKAAAKASESSSSEESSDDDDEEDQKKQPVQKGVKPQAKAAKAPPKKAKSSDSDSDSSSEDEPPKNQKPKITPVTVKAQTKAPPKPARAAPKIANGKAASSSSSSSSSSSSDDSEEEKAAATPKKTVPKKQVVAKAPVKAATTPTRKSSSSEDSSSDEEEEQKKPMKNKPGPYSSVPPPSAPPPKKSLGTQPPKKAVEKQQPVESSEDSSDESDSSSEEEKKPPTKAVVSKATTKPPPAKKAAESSSDSSDSDSSEDDEAPSKPAGTTKNSSNKPAVTTKSPAVKPAAAPKQPVGGGQKLLTRKADSSSSEEESSSSEEEKTKKMVATTKPKATAKAALSLPAKQAPQGSRDSSSDSDSSSSEEEEEKTSKSAVKKKPQKVAGGAAPSKPASAKKGKAESSNSSSSDDSSEEEEEKLKGKGSPRPQAPKANGTSALTAQNGKAAKNSEEEEEEKKKAAVVVSKSGSLKKRKQNEAAKEAETPQAKKIKLQTPNTFPKRKKGEKRASSPFRRVREEEIEVDSRVADNSFDAKRGAAGDWGERANQVLKFTKGKSFRHEKTKKKRGSYRGGSISVQVNSIKFDSE
On to B2, for which, in assay [1], the binding result was “binds”.

B3: endogenous AP3B1, the β subunit of the AP3 adaptor protein complex (protein, UniProt O00203 1-1094)
chain: MSSNSFPYNEQSGGGEATELGQEATSTISPSGAFGLFSSDLKKNEDLKQMLESNKDSAKLDAMKRIVGMIAKGKNASELFPAVVKNVASKNIEIKKLVYVYLVRYAEEQQDLALLSISTFQRALKDPNQLIRASALRVLSSIRVPIIVPIMMLAIKEASADLSPYVRKNAAHAIQKLYSLDPEQKEMLIEVIEKLLKDKSTLVAGSVVMAFEEVCPDRIDLIHKNYRKLCNLLVDVEEWGQVVIIHMLTRYARTQFVSPWKEGDELEDNGKNFYESDDDQKEKTDKKKKPYTMDPDHRLLIRNTKPLLQSRNAAVVMAVAQLYWHISPKSEAGIISKSLVRLLRSNREVQYIVLQNIATMSIQRKGMFEPYLKSFYVRSTDPTMIKTLKLEILTNLANEANISTLLREFQTYVKSQDKQFAAATIQTIGRCATNILEVTDTCLNGLVCLLSNRDEIVVAESVVVIKKLLQMQPAQHGEIIKHMAKLLDSITVPVARASILWLIGENCERVPKIAPDVLRKMAKSFTSEDDLVKLQILNLGAKLYLTNSKQTKLLTQYILNLGKYDQNYDIRDRTRFIRQLIVPNVKSGALSKYAKKIFLAQKPAPLLESPFKDRDHFQLGTLSHTLNIKATGYLELSNWPEVAPDPSVRNVEVIELAKEWTPAGKAKQENSAKKFYSESEEEEDSSDSSSDSESESGSESGEQGESGEEGDSNEDSSEDSSSEQDSESGRESGLENKRTAKRNSKAKGKSDSEDGEKENEKSKTSDSSNDESSSIEDSSSDSESESEPESESESRRVTKEKEKKTKQDRTPLTKDVSLLDLDDFNPVSTPVALPTPALSPSLMADLEGLHLSTSSSVISVSTPAFVPTKTHVLLHRMSGKGLAAHYFFPRQPCIFGDKMVSIQITLNNTTDRKIENIHIGEKKLPIGMKMHVFNPIDSLEPEGSITVSMGIDFCDSTQTASFQLCTKDDCFNVNIQPPVGELLLPVAMSEKDFKKEQGVLTGMNETSAVIIAAPQNFTPSVIFQKVVNVANVGAVPSGQDNIHRFAAKTVHSGSLMLVTVELKEGSTAQLIINTEKTVIGSVLLRELKPVLSQG
With B3, the binding entry in assay [1] is recorded as “binds”.

B4: myc epitope-tagged AP3B1 (protein, UniProt O00203-1 1-1094)
chain: B3 chain
With B4, the binding result in assay [2], in assay [3], in assay [4], in assay [5], in assay [6] and in assay [1] was “binds” throughout. Also, the binding entry in assay [7] and in assay [8] was “binds” each time.
